PubChem BioAssay AID1224830, NIAID – 2016
This is a random part of about 18,000 reagents. About 2,900 of them (16%) count as active. 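Calls are made per well; low scores hint the gene aids the LPS response, high scores that it dampens it.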 Repeated entries: four replicate wells of each siRNA pool.

- Test: 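Regulators of TLR4 signalling towards TNF-alpha in macrophage-like cells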 (primary screen)
- System: human THP-1 monocytic leukaemia cells, TNF dual-luciferase reporter clone, PMA-differentiated to macrophage-like cells
- Knock-down reagent: siRNA pool against human genes, 50 nM
- Time to read-out: LPS for 4 h, given about 3 days after siRNA transfection
- Conditions: bacterial LPS (TLR4 ligand), 10 ng/ml
- Measurement: 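TNF firefly reporter luminescence divided by renilla, normalised to the plate median, then turned into a robust z-score for each replicate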
- Direction: TNF reporter robust z-score: higher = stronger TNF reporter response to LPS
- Active means: 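Each well counts as active if its z-score is over 2.8 or under -1.5; controls are left without a call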

no.	gene knocked down	TNF reporter robust z-score	Outcome
1	CATSPER4	0.91	inactive
2	CATSPER4	2.85	active
3	CATSPER4	0.09	inactive
4	CATSPER4	0.07	inactive
5	OCIAD1	-0.56	inactive
6	OCIAD1	-0.99	inactive
7	OCIAD1	-0.9	inactive
8	OCIAD1	0.65	inactive
9	NANP	0.75	inactive
10	NANP	1.54	inactive
11	NANP	1.14	inactive
12	NANP	1.26	inactive
13	ARHGAP4	-0.22	inactive
14	ARHGAP4	0.11	inactive
15	ARHGAP4	0.1	inactive
16	ARHGAP4	-0.47	inactive
17	CD207	-1.38	inactive
18	CD207	-1.01	inactive
19	CD207	-0.77	inactive
20	CD207	-1.15	inactive
21	AHI1	2.09	inactive
22	AHI1	1.35	inactive
23	AHI1	-0.85	inactive
24	AHI1	0.17	inactive
25	CHRDL1	-0.8	inactive
26	CHRDL1	-0.58	inactive
27	CHRDL1	-0.35	inactive
28	CHRDL1	-0.59	inactive
29	SRSF12	1.89	inactive
30	SRSF12	1.23	inactive
31	SRSF12	2.22	inactive
32	SRSF12	2.2	inactive
33	PDCL	1.64	inactive
34	PDCL	2.3	inactive
35	PDCL	1.73	inactive
36	PDCL	-0.19	inactive
37	P2RY10	-0.05	inactive
38	P2RY10	1.24	inactive
39	P2RY10	1.05	inactive
40	P2RY10	1.51	inactive
41	FAHD2A	0.46	inactive
42	FAHD2A	0.66	inactive
43	FAHD2A	0.21	inactive
44	FAHD2A	1.12	inactive
45	KIAA1217	2.63	inactive
46	KIAA1217	4.54	active
47	KIAA1217	-0.12	inactive
48	KIAA1217	0.46	inactive
49	ALPP	-0.31	inactive
50	ALPP	-0.51	inactive
51	ALPP	-0.13	inactive
52	ALPP	0.28	inactive
53	MAGT1	0.83	inactive
54	MAGT1	1.8	inactive
55	MAGT1	0.59	inactive
56	MAGT1	0.15	inactive
57	PSPHP1	-0.74	inactive
58	PSPHP1	-0.7	inactive
59	PSPHP1	-0.08	inactive
60	PSPHP1	0.24	inactive
61	SOST	-1.83	active
62	SOST	-0.29	inactive
63	SOST	-0.46	inactive
64	SOST	0.41	inactive
65	ERGIC1	-0.38	inactive
66	ERGIC1	-0.72	inactive
67	ERGIC1	-0.33	inactive
68	ERGIC1	-1.09	inactive
69	C1orf54	0.63	inactive
70	C1orf54	-0.49	inactive
71	C1orf54	-0.85	inactive
72	C1orf54	-0.53	inactive
73	EMC3	0.02	inactive
74	EMC3	1.46	inactive
75	EMC3	0.68	inactive
76	EMC3	1.86	inactive
77	CATSPERT	-0.01	inactive
78	CATSPERT	-0.35	inactive
79	CATSPERT	-0.62	inactive
80	CATSPERT	-1.18	inactive
81	MRPS33	-0.51	inactive
82	MRPS33	-1.29	inactive
83	MRPS33	-1.09	inactive
84	MRPS33	-1.35	inactive
85	CTTN	-0.42	inactive
86	CTTN	0.44	inactive
87	CTTN	-1.06	inactive
88	CTTN	0.27	inactive
89	H2AB2	0.71	inactive
90	H2AB2	1.86	inactive
91	H2AB2	1.6	inactive
92	H2AB2	0.6	inactive
93	ISOC1	0	inactive
94	ISOC1	1.99	inactive
95	ISOC1	0.05	inactive
96	ISOC1	2.6	inactive
97	CHAD	0.87	inactive
98	CHAD	-0.24	inactive
99	CHAD	-0.14	inactive
100	CHAD	0.79	inactive
101	HTR3A	-0.62	inactive
102	HTR3A	-0.3	inactive
103	HTR3A	-1.48	inactive
104	HTR3A	-1.17	inactive
105	TAS2R20	2.02	inactive
106	TAS2R20	2.81	active
107	TAS2R20	0.7	inactive
108	TAS2R20	3.84	active
109	CENPH	-0.9	inactive
110	CENPH	-0.92	inactive
111	CENPH	-1.04	inactive
112	CENPH	-0.78	inactive
113	CIT	0.21	inactive
114	CIT	0.72	inactive
115	CIT	-0.01	inactive
116	CIT	0.37	inactive
117	UBL4B	-0.92	inactive
118	UBL4B	0.77	inactive
119	UBL4B	-0.75	inactive
120	UBL4B	-0.72	inactive
121	SPMIP9	-0.83	inactive
122	SPMIP9	0.17	inactive
123	SPMIP9	0.15	inactive
124	SPMIP9	0.19	inactive
125	NTN4	0	inactive
126	NTN4	0.43	inactive
127	NTN4	0.34	inactive
128	NTN4	1.5	inactive
129	CT47A4	-0.3	inactive
130	CT47A4	0.09	inactive
131	CT47A4	-0.06	inactive
132	CT47A4	0.41	inactive
133	TRAT1	-1.26	inactive
134	TRAT1	-0.95	inactive
135	TRAT1	-0.22	inactive
136	TRAT1	-1.38	inactive
137	ATOH8	0.86	inactive
138	ATOH8	1.47	inactive
139	ATOH8	0.63	inactive
140	ATOH8	0.8	inactive
